According to the supplement of paper PMC8728848:
The other results are listed elsewhere or left out.

What was measured:
Assay in all cases: glycan array binding signal (z-score within array); higher = stronger binding
Conditions in all cases: glycan notation: IUPAC condensed, linker removed
[1] = molecular target: Fuc(a1-2)Gal
Outline: (§1)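 Glycan array data were curated from 3228 arrays in the Consortium for Functional Glycomics database and kept only where the protein sequence was available. Glycan names were converted to IUPAC-condensed notation, and columns mapping to the same glycan were averaged. The binding signal is a within-array Z-score, averaged across arrays of the same protein sequence at different concentrations or buffers and across linkers. Negative Z-scores can be read as non-binding.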

[2] = molecular target: Fuc(a1-2)Gal(b1-3)GalNAc
Outline: as §1

[3] = molecular target: Fuc(a1-2)Gal(b1-3)GalNAc(a1-3)[Fuc(a1-2)]Gal(b1-4)Glc
Outline: as §1

[4] = molecular target: Fuc(a1-2)Gal(b1-3)GalNAc(a1-3)[Fuc(a1-2)]Gal(b1-4)GlcNAc
Outline: as §1

[5] = molecular target: Fuc(a1-2)Gal(b1-3)GalNAc(b1-3)Gal
Outline: as §1

[6] = molecular target: Fuc(a1-2)Gal(b1-3)GalNAc(b1-3)Gal(a1-4)Gal(b1-4)Glc
Outline: as §1

[7] = molecular target: Fuc(a1-2)Gal(b1-3)GalNAc(b1-4)[Neu5Ac(a2-3)]Gal(b1-4)Glc
Outline: as §1

[8] = molecular target: Fuc(a1-2)Gal(b1-3)GlcNAc
Outline: as §1

[9] = molecular target: Fuc(a1-2)Gal(b1-3)GlcNAc(b1-2)Man(a1-3)[Fuc(a1-2)Gal(b1-3)GlcNAc(b1-2)Man(a1-6)]Man(b1-4)GlcNAc(b1-4)GlcNAc
Outline: as §1

[10] = molecular target: Fuc(a1-2)Gal(b1-3)GlcNAc(b1-2)Man(a1-3)[Fuc(a1-2)Gal(b1-3)GlcNAc(b1-2)Man(a1-6)]Man(b1-4)GlcNAc(b1-4)[Fuc(a1-6)]GlcNAc
Outline: as §1

[11] = molecular target: Fuc(a1-2)Gal(b1-3)GlcNAc(b1-3)Gal(b1-4)Glc
Outline: as §1

[12] = molecular target: Fuc(a1-2)Gal(b1-3)GlcNAc(b1-3)GalNAc
Outline: as §1

[13] = molecular target: Fuc(a1-2)Gal(b1-3)GlcNAc(b1-3)[Fuc(a1-2)Gal(b1-3)GlcNAc(b1-6)]GalNAc
Outline: as §1

[14] = molecular target: Fuc(a1-2)Gal(b1-3)GlcNAc(b1-3)[Gal(b1-4)GlcNAc(b1-6)]Gal(b1-4)Glc
Outline: as §1

[15] = molecular target: Fuc(a1-2)Gal(b1-3)GlcNAc(b1-3)[Neu5Ac(a2-6)Gal(b1-4)GlcNAc(b1-6)]Gal(b1-4)Glc
Outline: as §1

[16] = molecular target: Fuc(a1-2)Gal(b1-3)GlcNAc6S
Outline: as §1

[17] = molecular target: Fuc(a1-2)Gal(b1-3)[Fuc(a1-4)]GlcNAc
Outline: as §1

[18] = molecular target: Fuc(a1-2)Gal(b1-3)[Fuc(a1-4)]GlcNAc(b1-2)Man(a1-3)[Fuc(a1-2)Gal(b1-3)[Fuc(a1-4)]GlcNAc(b1-2)Man(a1-3)]Man(b1-4)GlcNAc(b1-4)GlcNAc
Outline: as §1

[19] = molecular target: Fuc(a1-2)Gal(b1-3)[Fuc(a1-4)]GlcNAc(b1-2)Man(a1-3)[Fuc(a1-2)Gal(b1-3)[Fuc(a1-4)]GlcNAc(b1-2)Man(a1-6)]Man(b1-4)GlcNAc(b1-4)[Fuc(a1-6)]GlcNAc(b1-4)[Fuc(a1-6)]GlcNAc
Outline: as §1

[20] = molecular target: Fuc(a1-2)Gal(b1-3)[Fuc(a1-4)]GlcNAc(b1-3)[Fuc(a1-3)[Gal(b1-4)]GlcNAc(b1-6)]Gal(b1-4)Glc
Outline: as §1

[21] = molecular target: Fuc(a1-2)Gal(b1-3)[Fuc(a1-4)]GlcNAc(b1-3)[Gal(b1-4)GlcNAc(b1-6)]Gal(b1-4)Glc
Outline: as §1

[22] = molecular target: Fuc(a1-2)Gal(b1-4)Glc
Outline: as §1

[23] = molecular target: Fuc(a1-2)Gal(b1-4)Glc6S
Outline: as §1

[24] = molecular target: Fuc(a1-2)Gal(b1-4)GlcNAc
Outline: as §1

[25] = molecular target: Fuc(a1-2)Gal(b1-4)GlcNAc(b1-2)Man
Outline: as §1

[26] = molecular target: Fuc(a1-2)Gal(b1-4)GlcNAc(b1-2)Man(a1-3)[Fuc(a1-2)Gal(b1-4)GlcNAc(b1-2)Man(a1-6)]Man(b1-4)GlcNAc(b1-4)GlcNAc
Outline: as §1

[27] = molecular target: Fuc(a1-2)Gal(b1-4)GlcNAc(b1-2)Man(a1-3)[Fuc(a1-2)Gal(b1-4)GlcNAc(b1-2)Man(a1-6)]Man(b1-4)GlcNAc(b1-4)[Fuc(a1-6)]GlcNAc
Outline: as §1

[28] = molecular target: Fuc(a1-2)Gal(b1-4)GlcNAc(b1-2)[Fuc(a1-2)Gal(b1-4)GlcNAc(b1-4)]Man(a1-3)[Fuc(a1-2)Gal(b1-4)GlcNAc(b1-2)Man(a1-6)]Man(b1-4)GlcNAc(b1-4)GlcNAc
Outline: as §1

[29] = molecular target: Fuc(a1-2)Gal(b1-4)GlcNAc(b1-3)Gal(b1-4)GlcNAc
Outline: as §1

[30] = molecular target: Fuc(a1-2)Gal(b1-4)GlcNAc(b1-3)Gal(b1-4)GlcNAc(b1-2)Man(a1-3)[Fuc(a1-2)Gal(b1-4)GlcNAc(b1-3)Gal(b1-4)GlcNAc(b1-2)Man(a1-6)]Man(b1-4)GlcNAc(b1-4)GlcNAc
Outline: as §1

[31] = molecular target: Fuc(a1-2)Gal(b1-4)GlcNAc(b1-3)Gal(b1-4)GlcNAc(b1-3)Gal(b1-4)GlcNAc
Outline: as §1

[32] = molecular target: Fuc(a1-2)Gal(b1-4)GlcNAc(b1-3)GalNAc
Outline: as §1

[33] = molecular target: Fuc(a1-2)Gal(b1-4)GlcNAc(b1-3)[Fuc(a1-2)Gal(b1-4)GlcNAc(b1-6)]GalNAc
Outline: as §1

[34] = molecular target: Fuc(a1-2)Gal(b1-4)GlcNAc(b1-3)[Fuc(a1-3)[Gal(b1-4)]GlcNAc(b1-6)]Gal(b1-4)Glc
Outline: as §1

[35] = molecular target: Fuc(a1-2)Gal(b1-4)GlcNAc(b1-6)GalNAc
Outline: as §1

[36] = molecular target: Fuc(a1-2)Gal(b1-4)GlcNAc6S
Outline: as §1

[37] = molecular target: Fuc(a1-2)Gal(b1-4)[Fuc(a1-3)]GlcNAc
Outline: as §1

[38] = molecular target: Fuc(a1-2)Gal(b1-4)[Fuc(a1-3)]GlcNAc(b1-2)Man(a1-3)[Fuc(a1-2)Gal(b1-4)[Fuc(a1-3)]GlcNAc(b1-2)Man(a1-6)]Man(b1-4)GlcNAc(b1-4)[Fuc(a1-6)]GlcNAc
Outline: as §1

[39] = molecular target: Fuc(a1-2)Gal(b1-4)[Fuc(a1-3)]GlcNAc(b1-2)[Fuc(a1-2)Gal(b1-4)[Fuc(a1-3)]GlcNAc(b1-4)]Man(a1-3)[Fuc(a1-2)Gal(b1-4)[Fuc(a1-3)]GlcNAc(b1-2)Man(a1-6)]Man(b1-4)GlcNAc(b1-4)GlcNAc
Outline: as §1

[40] = molecular target: Fuc(a1-2)Gal(b1-4)[Fuc(a1-3)]GlcNAc(b1-3)Gal(b1-4)[Fuc(a1-3)]GlcNAc
Outline: as §1

[41] = molecular target: Fuc(a1-2)Gal(b1-4)[Fuc(a1-3)]GlcNAc(b1-3)Gal(b1-4)[Fuc(a1-3)]GlcNAc(b1-3)Gal(b1-4)[Fuc(a1-3)]GlcNAc
Outline: as §1

[42] = molecular target: Fuc(a1-2)Gal(b1-4)[Fuc(a1-3)]GlcNAc(b1-3)GalNAc
Outline: as §1

[43] = molecular target: Fuc(a1-2)Gal(b1-4)[Fuc(a1-3)]GlcNAc(b1-3)[Neu5Ac(a2-6)Gal(b1-4)GlcNAc(b1-6)]Gal(b1-4)Glc
Outline: as §1

[44] = molecular target: Fuc(a1-2)Gal3S(b1-4)GlcNAc
Outline: as §1

[45] = molecular target: Fuc(a1-2)Gal6S(b1-3)GlcNAc
Outline: as §1

B1: GS7807Q-bfa-507-19-507 (Bacteroides fragilis) (protein)
chain: ASCNKFDDLNTNPDAATKVTAPMLATKLILNITQQGSAKNFVYHSMLSKQIAWSENASDEQYNLFGRTDFDGYTILTNCQKMVDAANEGDKDSYAALAKFMKAYKLFYKSLEVGDIPYSDALKGEEGVQKPKYDTQKEVMRQVLEDLEEAYTLFSSGSDFDGDPIFGGDTENWKKTVVAFELKVLTHLCKKDTDADLKVKERFARLVSSGSLMTSNADNFQLVYSNKAGQLYPFYYTQNKHSDYLMMSSVIIDNLKKFNDYRMFYYASPAKAQTDKGIKDSEWDAYLSIDPSDSYSNISVLYGKGEFCLANLRYTRVPEGEPLMRLSYAEQNFILAEGAVRGWISEDASTYYKKGIEASMNFIADNTPDKEEYTHGRTITQEYIQEYLAQPVIQLSGDKEKDLEMILLQRYLASFLQHPYDAYYDYRRTGYPVLPINPSTNLNTEKNKIPTRWMYPEAEFSYNPDNANEAVQRQYNGSDDVNKLMWILQ
glycan array binding signal (z-score) [1]: -0.64
glycan array binding signal (z-score) [2]: -1.06
glycan array binding signal (z-score) [3]: -0.063
glycan array binding signal (z-score) [4]: -1.04
glycan array binding signal (z-score) [5]: 1.59
glycan array binding signal (z-score) [6]: -0.458
glycan array binding signal (z-score) [7]: 0.204
glycan array binding signal (z-score) [8]: -0.429
glycan array binding signal (z-score) [9]: 0.576
glycan array binding signal (z-score) [10]: -0.2
glycan array binding signal (z-score) [11]: 0.58
glycan array binding signal (z-score) [12]: 0.392
glycan array binding signal (z-score) [13]: -0.116
glycan array binding signal (z-score) [14]: -0.015
glycan array binding signal (z-score) [15]: -0.457
glycan array binding signal (z-score) [16]: -1.1
glycan array binding signal (z-score) [17]: -0.925
glycan array binding signal (z-score) [18]: -0.678
glycan array binding signal (z-score) [19]: 0.639
glycan array binding signal (z-score) [20]: 0.481
glycan array binding signal (z-score) [21]: -0.199
glycan array binding signal (z-score) [22]: -0.389
glycan array binding signal (z-score) [23]: -1.16
glycan array binding signal (z-score) [24]: -0.646
glycan array binding signal (z-score) [25]: 0.759
glycan array binding signal (z-score) [26]: 6.11
glycan array binding signal (z-score) [27]: 1.59
glycan array binding signal (z-score) [28]: 1.14
glycan array binding signal (z-score) [29]: -0.681
glycan array binding signal (z-score) [30]: -0.466
glycan array binding signal (z-score) [31]: -0.518
glycan array binding signal (z-score) [32]: -0.41
glycan array binding signal (z-score) [33]: 0.43
glycan array binding signal (z-score) [34]: 0.636
glycan array binding signal (z-score) [35]: 4.43
glycan array binding signal (z-score) [36]: -0.736
glycan array binding signal (z-score) [37]: -0.981
glycan array binding signal (z-score) [38]: 0.717
glycan array binding signal (z-score) [39]: 0.484
glycan array binding signal (z-score) [40]: -0.936
glycan array binding signal (z-score) [41]: -0.232
glycan array binding signal (z-score) [42]: 1.5
glycan array binding signal (z-score) [43]: 0.368
glycan array binding signal (z-score) [44]: -0.3
glycan array binding signal (z-score) [45]: -0.23
